Data as given in PubChem BioAssay AID1224828 (NIAID, 2016).
This is a random part of about 17,000 reagents tested. In the full data, 762 (4.5%) are marked active. 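Active calls include both raised and lowered p65 entry, mostly lowered; wells with fewer than 50 cells lack a z-score.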 The raw values are shown without normalisation. A number with no mark means an inactive call. Reagents against one gene are numbered here. Reagent sequences are not shown.

- Assay: 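Regulators linking TLR4 signalling to p65 nuclear translocation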 (primary screen)
- Cells: mouse RAW264.7 G9 macrophage reporter cells (GFP-p65, Tnf promoter-mCherry)
- Reagent: siRNA pool against mouse genes, 100 nM
- Time to read-out: 2 days siRNA transfection, then 40 min LPS before fixation
- Treatment: LPS (Salmonella minnesota R595) at 10 ng/ml
- Measured: 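Imaged p65 nuclear translocation ratio, normalised to the plate median, converted to robust z-scores and averaged across two replicates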
- Scale: p65 translocation robust z-score: higher = more nuclear NF-kappaB p65 after LPS than the plate median; nuclear/cytoplasmic p65 ratio: higher = more nuclear NF-kappaB p65
- Hit rule: 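Called active when z exceeds 3.3 or falls under -1.56 (median of Tlr4 controls), giving activity score of at least 50; no calls for control wells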
- Meaning of the calls: active = hit (p65 shift raised or lowered); inactive = no clear change

| gene knocked down | reagent | p65 translocation robust z-score | nuclear/cytoplasmic p65 ratio, rep 1 | nuclear/cytoplasmic p65 ratio, rep 2 | low cell count flag |
| --- | --- | --- | --- | --- | --- |
| Ccdc42 (GeneID 276920) | 1 | 1.14 | 1.44 | 1.69 | enough cells to score |
| Ceacam12 (GeneID 67315) | 1 | -0.32 | 1.55 | 1.73 | enough cells to score |
| Sfr1 (GeneID 67788) | 1 | -0.25 | 1.29 | 1.47 | enough cells to score |
| Klf3 (GeneID 16599) | 1 | – | 1.41 | 1.44 | fewer than 50 cells per well; well left out of scoring |
| Abcd2 (GeneID 26874) | 1 | 0.83 | 1.77 | 1.77 | enough cells to score |
| Sh3bgrl (GeneID 56726) | 1 | – | 0 | 1.26 | fewer than 50 cells per well; well left out of scoring |
| Tmt1b (GeneID 71664) | 1 | 2.34 | 1.88 | 1.76 | enough cells to score |
| Drp2 (GeneID 13497) | 1 | 1.22 | 1.71 | 1.48 | enough cells to score |
| Xbp1 (GeneID 22433) | 1 | 0.6 | 1.64 | 1.55 | enough cells to score |
| Vps39 (GeneID 269338) | 1 | 0.41 | 1.43 | 1.28 | enough cells to score |
| Otx1 (GeneID 18423) | 1 | -1.07 | 1.25 | 1.33 | enough cells to score |
| Or9s18 (GeneID 258816) | 1 | -0.17 | 1.45 | 1.23 | enough cells to score |
| Il31ra (GeneID 218624) | 1 | 0.15 | 1.5 | 1.4 | enough cells to score |
| Vmn1r62 (GeneID 81016) | 1 | -0.11 | 1.38 | 1.1 | enough cells to score |
| Vmn1r62 (GeneID 81016) | 2 | -0.41 | 1.34 | 1.18 | enough cells to score |
| Nop10 (GeneID 66181) | 1 | 0.53 | 1.88 | 1.53 | enough cells to score |
| Gad2 (GeneID 14417) | 1 | 0.9 | 1.55 | 1.48 | enough cells to score |
| Trh (GeneID 22044) | 1 | -0.93 | 1.4 | 1.36 | enough cells to score |
| Or5w17 (GeneID 258630) | 1 | -0.58 | 1.66 | 1.41 | enough cells to score |
| S1pr3 (GeneID 13610) | 1 | 0.49 | 1.47 | 1.76 | enough cells to score |
| Vmn1r181 (GeneID 404289) | 1 | -0.89 | 1.25 | 1.15 | enough cells to score |
| P4ha3 (GeneID 320452) | 1 | – | 1.44 | 1.18 | fewer than 50 cells per well; well left out of scoring |
| Thap1 (GeneID 73754) | 1 | – | 1.51 | 1.2 | fewer than 50 cells per well; well left out of scoring |
| Rhob (GeneID 11852) | 1 | 0.79 | 1.81 | 1.45 | enough cells to score |
| Rft1 (GeneID 328370) | 1 | 0.71 | 1.65 | 1.67 | enough cells to score |
| Tspo2 (GeneID 70026) | 1 | 0.71 | 1.53 | 1.41 | enough cells to score |
| Lce1e (GeneID 68694) | 1 | -0.84 | 1.4 | 1.36 | enough cells to score |
| Srsf12 (GeneID 272009) | 1 | 2.6 | 1.58 | 1.52 | enough cells to score |
| Snrnp70 (GeneID 20637) | 1 | -0.74 | 1.34 | 1.15 | enough cells to score |
| Nupr2 (GeneID 69034) | 1 | – | 1.12 | 1.28 | fewer than 50 cells per well; well left out of scoring |

4 entries from above, reformatted.
Klf3 (GeneID 16599)
- nuclear/cytoplasmic p65 ratio, rep 1: 1.41
- nuclear/cytoplasmic p65 ratio, rep 2: 1.44
- low cell count flag: fewer than 50 cells per well; well left out of scoring

Abcd2 (GeneID 26874)
- p65 translocation robust z-score: 0.83
- nuclear/cytoplasmic p65 ratio, rep 1: 1.77
- nuclear/cytoplasmic p65 ratio, rep 2: 1.77
- low cell count flag: enough cells to score

Sh3bgrl (GeneID 56726)
- nuclear/cytoplasmic p65 ratio, rep 1: 0
- nuclear/cytoplasmic p65 ratio, rep 2: 1.26
- low cell count flag: fewer than 50 cells per well; well left out of scoring

Tmt1b (GeneID 71664)
- p65 translocation robust z-score: 2.34
- nuclear/cytoplasmic p65 ratio, rep 1: 1.88
- nuclear/cytoplasmic p65 ratio, rep 2: 1.76
- low cell count flag: enough cells to score

Additional records:
| gene knocked down | reagent | p65 translocation robust z-score | nuclear/cytoplasmic p65 ratio, rep 1 | nuclear/cytoplasmic p65 ratio, rep 2 | low cell count flag |
| --- | --- | --- | --- | --- | --- |
| Stpg1 (GeneID 78806) | 1 | – | 1.28 | 1.63 | fewer than 50 cells per well; well left out of scoring |
| Vmn1r36 (GeneID 171184) | 1 | -0.54 | 1.42 | 1.17 | enough cells to score |
| Or6n1 (GeneID 258717) | 1 | 1.35 | 1.63 | 1.43 | enough cells to score |
| Dusp14 (GeneID 56405) | 1 | 1.08 | 1.7 | 1.46 | enough cells to score |
| Cfap161 (GeneID 75556) | 1 | – | 1.26 | 1.16 | fewer than 50 cells per well; well left out of scoring |
| Trim35 (GeneID 66854) | 1 | -1.44 | 1.18 | 1.04 | enough cells to score |
| Smu1 (GeneID 74255) | 1 | -0.24 | 1.21 | 1.2 | enough cells to score |
| Or12e7 (GeneID 258834) | 1 | -1.58 (active) | 1.4 | 1.36 | enough cells to score |
| Arpp19 (GeneID 59046) | 1 | 1.36 | 1.9 | 1.75 | enough cells to score |
| 1700006J14Rik (GeneID 321010) | 1 | – | 1.34 | 1.43 | fewer than 50 cells per well; well left out of scoring |
| Iba57 (GeneID 216792) | 1 | – | 1.26 | 1.34 | fewer than 50 cells per well; well left out of scoring |
| Iba57 (GeneID 216792) | 2 | -0.37 | 1.28 | 1.48 | enough cells to score |
| Pter (GeneID 19212) | 1 | – | 1.23 | 1.13 | fewer than 50 cells per well; well left out of scoring |
| Upp1 (GeneID 22271) | 1 | 1.27 | 1.63 | 1.74 | enough cells to score |
| Lsm5 (GeneID 66373) | 1 | 1.82 | 2 | 1.81 | enough cells to score |
| Idi2 (GeneID 320581) | 1 | – | 1.31 | 1.2 | fewer than 50 cells per well; well left out of scoring |
| Or4c124 (GeneID 258320) | 1 | 0.4 | 1.85 | 1.52 | enough cells to score |
| Frmd8 (GeneID 67457) | 1 | – | 1.63 | 1.24 | fewer than 50 cells per well; well left out of scoring |
| Jam3 (GeneID 83964) | 1 | 0.1 | 1.58 | 1.43 | enough cells to score |
| Spa17 (GeneID 20686) | 1 | 0.21 | 1.64 | 1.46 | enough cells to score |
| Gpha2 (GeneID 170458) | 1 | 0.15 | 1.63 | 1.58 | enough cells to score |
| Hoxa6 (GeneID 15403) | 1 | -1.1 | 1.5 | 1.4 | enough cells to score |
| Postn (GeneID 50706) | 1 | -0.72 | 1.39 | 1.33 | enough cells to score |
| Ddx19b (GeneID 234733) | 1 | – | 1.14 | 0.779 | fewer than 50 cells per well; well left out of scoring |
| Nap1l1 (GeneID 53605) | 1 | 0.16 | 1.87 | 1.56 | enough cells to score |
| Ndrg4 (GeneID 234593) | 1 | -1.07 | 1.18 | 1.21 | enough cells to score |
| Fzd9 (GeneID 14371) | 1 | -1.23 | 1.33 | 1.41 | enough cells to score |
| Btg4 (GeneID 56057) | 1 | 0.58 | 1.79 | 1.62 | enough cells to score |
| Ptpn13 (GeneID 19249) | 1 | -0.41 | 1.38 | 1.41 | enough cells to score |
